{"source": "paper PMC6950750", "about": "“Newly Discovered Action of HpTx3 from Venom of Heteropoda venatoria on Nav1.7 and Its Pharmacological Implications in Analgesia” (Toxins, 2019)", "tested_on": "C57BL/6 mice, acetic acid-induced writhing model", "type": "in vivo, mouse (C57BL/6)", "conditions": "morphine 1 mg/kg i.p.; 30 min; control 40.3; n = 8", "experimental": "Healthy female C57BL/6 mice (weighting 18–20 g) that were used for analgesic activity assay were obtained from the Experimental Animal Center of SLac-kinda (Changsha, China) and were randomly assigned to five groups, each group generally containing 8 mice. […] The mice were maintained at a temperature of 20–25 °C and under a 12 h light/12 h dark cycle, with free access to food and water. The ethical approval for the in vivo animal experiments was obtained from the Animal Care and Use Committee of the Hunan Province Animal Management Office. (The approval code: 219/2019).", "data": [{"smiles": "CN1CC[C@]23c4c5ccc(O)c4O[C@H]2[C@@H](O)C=C[C@H]3[C@H]1C5", "note": "[morphine]", "values": [{"measurement": "average abdominal writhing number", "result": 16.8}]}]}
